# Source: the supplement of paper PMC8728848
# The list shows a part of the results.
# Key:
# Assay in all cases: glycan array binding signal (z-score within array); higher = stronger binding
# Details in all cases: glycan notation: IUPAC condensed, linker removed
# [1] = biological target: Fuc(a1-2)Gal
# Procedure, shortened: (§1)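 The binding signal is a Z-score computed within each array. Data were drawn from 3228 arrays in the Consortium for Functional Glycomics database, restricted to those with a known protein sequence. Scores were averaged over arrays of the same protein sequence at different concentrations or buffers, and over linkers, and negative values can be taken as non-binding.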
# [2] = biological target: Fuc(a1-2)Gal(b1-3)GalNAc
# Procedure, shortened: as §1
# [3] = biological target: Fuc(a1-2)Gal(b1-3)GalNAc(a1-3)[Fuc(a1-2)]Gal(b1-4)Glc
# Procedure, shortened: as §1
# [4] = biological target: Fuc(a1-2)Gal(b1-3)GalNAc(a1-3)[Fuc(a1-2)]Gal(b1-4)GlcNAc
# Procedure, shortened: as §1
# [5] = biological target: Fuc(a1-2)Gal(b1-3)GalNAc(b1-3)Gal
# Procedure, shortened: as §1
# [6] = biological target: Fuc(a1-2)Gal(b1-3)GalNAc(b1-3)Gal(a1-4)Gal(b1-4)Glc
# Procedure, shortened: as §1
# [7] = biological target: Fuc(a1-2)Gal(b1-3)GalNAc(b1-4)[Neu5Ac(a2-3)]Gal(b1-4)Glc
# Procedure, shortened: as §1
# [8] = biological target: Fuc(a1-2)Gal(b1-3)GlcNAc
# Procedure, shortened: as §1
# [9] = biological target: Fuc(a1-2)Gal(b1-3)GlcNAc(b1-2)Man(a1-3)[Fuc(a1-2)Gal(b1-3)GlcNAc(b1-2)Man(a1-6)]Man(b1-4)GlcNAc(b1-4)GlcNAc
# Procedure, shortened: as §1
# [10] = biological target: Fuc(a1-2)Gal(b1-3)GlcNAc(b1-2)Man(a1-3)[Fuc(a1-2)Gal(b1-3)GlcNAc(b1-2)Man(a1-6)]Man(b1-4)GlcNAc(b1-4)[Fuc(a1-6)]GlcNAc
# Procedure, shortened: as §1
# [11] = biological target: Fuc(a1-2)Gal(b1-3)GlcNAc(b1-3)Gal(b1-4)Glc
# Procedure, shortened: as §1
# [12] = biological target: Fuc(a1-2)Gal(b1-3)GlcNAc(b1-3)GalNAc
# Procedure, shortened: as §1
# [13] = biological target: Fuc(a1-2)Gal(b1-3)GlcNAc(b1-3)[Fuc(a1-2)Gal(b1-3)GlcNAc(b1-6)]GalNAc
# Procedure, shortened: as §1
# [14] = biological target: Fuc(a1-2)Gal(b1-3)GlcNAc(b1-3)[Gal(b1-4)GlcNAc(b1-6)]Gal(b1-4)Glc
# Procedure, shortened: as §1
# [15] = biological target: Fuc(a1-2)Gal(b1-3)GlcNAc(b1-3)[Neu5Ac(a2-6)Gal(b1-4)GlcNAc(b1-6)]Gal(b1-4)Glc
# Procedure, shortened: as §1
# [16] = biological target: Fuc(a1-2)Gal(b1-3)GlcNAc6S
# Procedure, shortened: as §1
# [17] = biological target: Fuc(a1-2)Gal(b1-3)[Fuc(a1-4)]GlcNAc
# Procedure, shortened: as §1
# [18] = biological target: Fuc(a1-2)Gal(b1-3)[Fuc(a1-4)]GlcNAc(b1-2)Man(a1-3)[Fuc(a1-2)Gal(b1-3)[Fuc(a1-4)]GlcNAc(b1-2)Man(a1-3)]Man(b1-4)GlcNAc(b1-4)GlcNAc
# Procedure, shortened: as §1
# [19] = biological target: Fuc(a1-2)Gal(b1-3)[Fuc(a1-4)]GlcNAc(b1-2)Man(a1-3)[Fuc(a1-2)Gal(b1-3)[Fuc(a1-4)]GlcNAc(b1-2)Man(a1-6)]Man(b1-4)GlcNAc(b1-4)[Fuc(a1-6)]GlcNAc(b1-4)[Fuc(a1-6)]GlcNAc
# Procedure, shortened: as §1
# [20] = biological target: Fuc(a1-2)Gal(b1-3)[Fuc(a1-4)]GlcNAc(b1-3)[Fuc(a1-3)[Gal(b1-4)]GlcNAc(b1-6)]Gal(b1-4)Glc
# Procedure, shortened: as §1
# [21] = biological target: Fuc(a1-2)Gal(b1-3)[Fuc(a1-4)]GlcNAc(b1-3)[Gal(b1-4)GlcNAc(b1-6)]Gal(b1-4)Glc
# Procedure, shortened: as §1
# [22] = biological target: Fuc(a1-2)Gal(b1-4)Fuc(a1-3)]GlcNAc(b1-2)Man(a1-3)[Fuc(a1-2)Gal(b1-4)[Fuc(a1-3)]GlcNAc(b1-2)Man(a1-6)]Man(b1-4)GlcNAc(b1-4)GlcNAc
# Procedure, shortened: as §1
# [23] = biological target: Fuc(a1-2)Gal(b1-4)Glc
# Procedure, shortened: as §1
# [24] = biological target: Fuc(a1-2)Gal(b1-4)Glc6S
# Procedure, shortened: as §1
# [25] = biological target: Fuc(a1-2)Gal(b1-4)GlcNAc
# Procedure, shortened: as §1
# [26] = biological target: Fuc(a1-2)Gal(b1-4)GlcNAc(b1-2)Man
# Procedure, shortened: as §1
# [27] = biological target: Fuc(a1-2)Gal(b1-4)GlcNAc(b1-2)Man(a1-3)[Fuc(a1-2)Gal(b1-4)GlcNAc(b1-2)Man(a1-6)]Man(b1-4)GlcNAc(b1-4)GlcNAc
# Procedure, shortened: as §1
# [28] = biological target: Fuc(a1-2)Gal(b1-4)GlcNAc(b1-2)Man(a1-3)[Fuc(a1-2)Gal(b1-4)GlcNAc(b1-2)Man(a1-6)]Man(b1-4)GlcNAc(b1-4)[Fuc(a1-6)]GlcNAc
# Procedure, shortened: as §1
# [29] = biological target: Fuc(a1-2)Gal(b1-4)GlcNAc(b1-2)[Fuc(a1-2)Gal(b1-4)GlcNAc(b1-4)]Man(a1-3)[Fuc(a1-2)Gal(b1-4)GlcNAc(b1-2)Man(a1-6)]Man(b1-4)GlcNAc(b1-4)GlcNAc
# Procedure, shortened: as §1
# [30] = biological target: Fuc(a1-2)Gal(b1-4)GlcNAc(b1-3)Gal(b1-4)GlcNAc
# Procedure, shortened: as §1
# [31] = biological target: Fuc(a1-2)Gal(b1-4)GlcNAc(b1-3)Gal(b1-4)GlcNAc(b1-2)Man(a1-3)[Fuc(a1-2)Gal(b1-4)GlcNAc(b1-3)Gal(b1-4)GlcNAc(b1-2)Man(a1-6)]Man(b1-4)GlcNAc(b1-4)GlcNAc
# Procedure, shortened: as §1
# [32] = biological target: Fuc(a1-2)Gal(b1-4)GlcNAc(b1-3)Gal(b1-4)GlcNAc(b1-3)Gal(b1-4)GlcNAc
# Procedure, shortened: as §1
# [33] = biological target: Fuc(a1-2)Gal(b1-4)GlcNAc(b1-3)GalNAc
# Procedure, shortened: as §1
# [34] = biological target: Fuc(a1-2)Gal(b1-4)GlcNAc(b1-3)[Fuc(a1-2)Gal(b1-4)GlcNAc(b1-6)]GalNAc
# Procedure, shortened: as §1
# [35] = biological target: Fuc(a1-2)Gal(b1-4)GlcNAc(b1-3)[Fuc(a1-3)[Gal(b1-4)]GlcNAc(b1-6)]Gal(b1-4)Glc
# Procedure, shortened: as §1
# [36] = biological target: Fuc(a1-2)Gal(b1-4)GlcNAc(b1-6)GalNAc
# Procedure, shortened: as §1
# [37] = biological target: Fuc(a1-2)Gal(b1-4)GlcNAc6S
# Procedure, shortened: as §1
# [38] = biological target: Fuc(a1-2)Gal(b1-4)[Fuc(a1-3)]GlcNAc
# Procedure, shortened: as §1
# [39] = biological target: Fuc(a1-2)Gal(b1-4)[Fuc(a1-3)]GlcNAc(b1-2)Man(a1-3)[Fuc(a1-2)Gal(b1-4)[Fuc(a1-3)]GlcNAc(b1-2)Man(a1-6)]Man(b1-4)GlcNAc(b1-4)[Fuc(a1-6)]GlcNAc
# Procedure, shortened: as §1
# [40] = biological target: Fuc(a1-2)Gal(b1-4)[Fuc(a1-3)]GlcNAc(b1-2)[Fuc(a1-2)Gal(b1-4)[Fuc(a1-3)]GlcNAc(b1-4)]Man(a1-3)[Fuc(a1-2)Gal(b1-4)[Fuc(a1-3)]GlcNAc(b1-2)Man(a1-6)]Man(b1-4)GlcNAc(b1-4)GlcNAc
# Procedure, shortened: as §1
# [41] = biological target: Fuc(a1-2)Gal(b1-4)[Fuc(a1-3)]GlcNAc(b1-3)Gal(b1-4)[Fuc(a1-3)]GlcNAc
# Procedure, shortened: as §1
# [42] = biological target: Fuc(a1-2)Gal(b1-4)[Fuc(a1-3)]GlcNAc(b1-3)Gal(b1-4)[Fuc(a1-3)]GlcNAc(b1-3)Gal(b1-4)[Fuc(a1-3)]GlcNAc
# Procedure, shortened: as §1
# [43] = biological target: Fuc(a1-2)Gal(b1-4)[Fuc(a1-3)]GlcNAc(b1-3)GalNAc
# Procedure, shortened: as §1
# [44] = biological target: Fuc(a1-2)Gal(b1-4)[Fuc(a1-3)]GlcNAc(b1-3)[Neu5Ac(a2-6)Gal(b1-4)GlcNAc(b1-6)]Gal(b1-4)Glc
# Procedure, shortened: as §1
# [45] = biological target: Fuc(a1-2)Gal3S(b1-4)GlcNAc
# Procedure, shortened: as §1
binder,measurement,setting,value
"CcfD (Bacteroides vulgatus), A6KYX8 (protein) MKYKNYFKSIIYLALGAFTLGSCEDFLDRQEDEKLTFDKIWESRNTTQQYWLNAMSFLPNENGSLQGDTEPYLGASDECTIAYDRQYRWINFGTWNPSQVPYYKMDHYYKGIRECNIFLQNVYKCSDPLVTKDQLDEWYWQTRFARAYYYFLMMRDYGPVFLLGDDLLDFTASTEELYRPRNTWDQCVNYVVSEMTQCAESGVVLQQSDLPAAKWGLATVGTCHAVISRLLLYSARPLFNGNKLYSTVKNPDAPDFPELSGVKLFPELDNTKWQKAAEAAKKLIDNPCYELYRAGNDNPYEDYYGVTHETWNKELIWTDRYNGLFSWGVGTVPTGVAGTAYGAVGPTQALVDAYAMNTGWYPITGYEADGTPIVEPLSGYELASELEKSSWIYPSGGWSNKADFEIEAPNMYKDREPRFYVTVFFGGNQWLHGNSATSISFAKGGNGNKSHDYPKSGYLCNRFYDHKLNSSEGQWGNITFPVFRLGEIYLNFIEAVLECKKNGVALDPSYEALAMEKWADLRKRAGLDPITSIYGQVSTEELIQLCRKERQIELAFERHRYFDTRTWMIATQTDNGKMYGMNTSCPLDAGMKGTETPDGFWERTAFETRVFQNKHYLYPFSQRELDRNKLLTQNYGW",glycan array binding signal (z-score),[1],0.105
same,glycan array binding signal (z-score),[2],-0.122
same,glycan array binding signal (z-score),[3],-0.18
same,glycan array binding signal (z-score),[4],-0.896
same,glycan array binding signal (z-score),[5],-0.566
same,glycan array binding signal (z-score),[6],-0.495
same,glycan array binding signal (z-score),[7],0.224
same,glycan array binding signal (z-score),[8],-0.007
same,glycan array binding signal (z-score),[9],2.03
same,glycan array binding signal (z-score),[10],-0.835
same,glycan array binding signal (z-score),[11],0.166
same,glycan array binding signal (z-score),[12],0.364
same,glycan array binding signal (z-score),[13],-0.266
same,glycan array binding signal (z-score),[14],-0.175
same,glycan array binding signal (z-score),[15],1.24
same,glycan array binding signal (z-score),[16],2.05
same,glycan array binding signal (z-score),[17],0.42
same,glycan array binding signal (z-score),[18],0.033
same,glycan array binding signal (z-score),[19],0.354
same,glycan array binding signal (z-score),[20],-0.566
same,glycan array binding signal (z-score),[21],-0.388
same,glycan array binding signal (z-score),[22],2
same,glycan array binding signal (z-score),[23],-1.1
same,glycan array binding signal (z-score),[24],-0.343
same,glycan array binding signal (z-score),[25],0.328
same,glycan array binding signal (z-score),[26],-0.185
same,glycan array binding signal (z-score),[27],4.7
same,glycan array binding signal (z-score),[28],0.806
same,glycan array binding signal (z-score),[29],-0.414
same,glycan array binding signal (z-score),[30],0.902
same,glycan array binding signal (z-score),[31],4.15
same,glycan array binding signal (z-score),[32],-0.912
same,glycan array binding signal (z-score),[33],-0.002
same,glycan array binding signal (z-score),[34],-0.515
same,glycan array binding signal (z-score),[35],-0.398
same,glycan array binding signal (z-score),[36],0.552
same,glycan array binding signal (z-score),[37],1.84
same,glycan array binding signal (z-score),[38],0.509
same,glycan array binding signal (z-score),[39],0.135
same,glycan array binding signal (z-score),[40],0.73
same,glycan array binding signal (z-score),[41],-0.424
same,glycan array binding signal (z-score),[42],-0.104
same,glycan array binding signal (z-score),[43],0.374
same,glycan array binding signal (z-score),[44],-0.744
same,glycan array binding signal (z-score),[45],-0.454

# Given with tabs: part of the list above.
binder	measurement	setting	value
CcfD (Bacteroides vulgatus), A6KYX8 (protein) MKYKNYFKSIIYLALGAFTLGSCEDFLDRQEDEKLTFDKIWESRNTTQQYWLNAMSFLPNENGSLQGDTEPYLGASDECTIAYDRQYRWINFGTWNPSQVPYYKMDHYYKGIRECNIFLQNVYKCSDPLVTKDQLDEWYWQTRFARAYYYFLMMRDYGPVFLLGDDLLDFTASTEELYRPRNTWDQCVNYVVSEMTQCAESGVVLQQSDLPAAKWGLATVGTCHAVISRLLLYSARPLFNGNKLYSTVKNPDAPDFPELSGVKLFPELDNTKWQKAAEAAKKLIDNPCYELYRAGNDNPYEDYYGVTHETWNKELIWTDRYNGLFSWGVGTVPTGVAGTAYGAVGPTQALVDAYAMNTGWYPITGYEADGTPIVEPLSGYELASELEKSSWIYPSGGWSNKADFEIEAPNMYKDREPRFYVTVFFGGNQWLHGNSATSISFAKGGNGNKSHDYPKSGYLCNRFYDHKLNSSEGQWGNITFPVFRLGEIYLNFIEAVLECKKNGVALDPSYEALAMEKWADLRKRAGLDPITSIYGQVSTEELIQLCRKERQIELAFERHRYFDTRTWMIATQTDNGKMYGMNTSCPLDAGMKGTETPDGFWERTAFETRVFQNKHYLYPFSQRELDRNKLLTQNYGW	glycan array binding signal (z-score)	[26]	-0.185
same	glycan array binding signal (z-score)	[27]	4.7
same	glycan array binding signal (z-score)	[28]	0.806
same	glycan array binding signal (z-score)	[29]	-0.414
same	glycan array binding signal (z-score)	[30]	0.902
same	glycan array binding signal (z-score)	[31]	4.15
same	glycan array binding signal (z-score)	[32]	-0.912
same	glycan array binding signal (z-score)	[33]	-0.002
